{
  "sequences": {"note": "Amino acid sequences for entries named in this document (tags omitted). Residues count along the entry.", "UniProt P35329, 22-708 limits assumed": "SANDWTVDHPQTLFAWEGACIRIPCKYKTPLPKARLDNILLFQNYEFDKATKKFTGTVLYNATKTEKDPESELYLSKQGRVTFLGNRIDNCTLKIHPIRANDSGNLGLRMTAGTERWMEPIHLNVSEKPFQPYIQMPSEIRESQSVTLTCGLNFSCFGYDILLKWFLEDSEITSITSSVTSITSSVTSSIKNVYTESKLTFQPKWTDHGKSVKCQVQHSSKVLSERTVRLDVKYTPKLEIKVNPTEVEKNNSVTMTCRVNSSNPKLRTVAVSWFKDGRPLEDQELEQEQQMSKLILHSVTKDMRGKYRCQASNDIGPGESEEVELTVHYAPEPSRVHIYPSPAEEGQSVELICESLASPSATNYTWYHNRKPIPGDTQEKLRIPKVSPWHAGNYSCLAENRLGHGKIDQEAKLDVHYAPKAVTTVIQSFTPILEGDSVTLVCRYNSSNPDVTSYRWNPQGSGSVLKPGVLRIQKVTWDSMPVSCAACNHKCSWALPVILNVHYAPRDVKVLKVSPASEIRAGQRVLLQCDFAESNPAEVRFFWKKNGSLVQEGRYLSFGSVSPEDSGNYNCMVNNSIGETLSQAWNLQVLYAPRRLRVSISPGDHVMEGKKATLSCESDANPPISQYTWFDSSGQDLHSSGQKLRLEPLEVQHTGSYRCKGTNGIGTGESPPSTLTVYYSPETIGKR", "UniProt P20273, 20-847 limits assumed": "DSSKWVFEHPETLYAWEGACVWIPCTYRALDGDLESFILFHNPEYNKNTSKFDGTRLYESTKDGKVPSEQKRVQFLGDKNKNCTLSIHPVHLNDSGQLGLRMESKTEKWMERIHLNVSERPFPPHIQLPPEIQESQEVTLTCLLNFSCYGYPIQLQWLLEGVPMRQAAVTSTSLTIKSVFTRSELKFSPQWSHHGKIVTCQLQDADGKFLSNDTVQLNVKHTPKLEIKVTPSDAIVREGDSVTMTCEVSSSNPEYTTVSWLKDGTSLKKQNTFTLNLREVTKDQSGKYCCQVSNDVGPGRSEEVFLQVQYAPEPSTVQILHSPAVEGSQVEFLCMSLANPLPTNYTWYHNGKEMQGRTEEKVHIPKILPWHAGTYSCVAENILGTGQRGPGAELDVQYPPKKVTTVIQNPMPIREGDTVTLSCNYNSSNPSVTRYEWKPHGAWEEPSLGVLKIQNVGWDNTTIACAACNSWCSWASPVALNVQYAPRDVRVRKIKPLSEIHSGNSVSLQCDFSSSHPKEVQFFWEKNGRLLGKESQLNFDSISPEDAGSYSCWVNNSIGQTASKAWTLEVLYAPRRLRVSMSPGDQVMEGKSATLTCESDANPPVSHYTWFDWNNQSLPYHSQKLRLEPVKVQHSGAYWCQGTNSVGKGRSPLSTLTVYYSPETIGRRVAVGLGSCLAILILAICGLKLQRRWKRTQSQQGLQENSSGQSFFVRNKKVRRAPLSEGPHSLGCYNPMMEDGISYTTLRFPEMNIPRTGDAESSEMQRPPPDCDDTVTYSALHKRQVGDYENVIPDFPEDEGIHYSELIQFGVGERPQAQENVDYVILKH", "UniProt A0A2K5WCZ6, 1-608 limits assumed": "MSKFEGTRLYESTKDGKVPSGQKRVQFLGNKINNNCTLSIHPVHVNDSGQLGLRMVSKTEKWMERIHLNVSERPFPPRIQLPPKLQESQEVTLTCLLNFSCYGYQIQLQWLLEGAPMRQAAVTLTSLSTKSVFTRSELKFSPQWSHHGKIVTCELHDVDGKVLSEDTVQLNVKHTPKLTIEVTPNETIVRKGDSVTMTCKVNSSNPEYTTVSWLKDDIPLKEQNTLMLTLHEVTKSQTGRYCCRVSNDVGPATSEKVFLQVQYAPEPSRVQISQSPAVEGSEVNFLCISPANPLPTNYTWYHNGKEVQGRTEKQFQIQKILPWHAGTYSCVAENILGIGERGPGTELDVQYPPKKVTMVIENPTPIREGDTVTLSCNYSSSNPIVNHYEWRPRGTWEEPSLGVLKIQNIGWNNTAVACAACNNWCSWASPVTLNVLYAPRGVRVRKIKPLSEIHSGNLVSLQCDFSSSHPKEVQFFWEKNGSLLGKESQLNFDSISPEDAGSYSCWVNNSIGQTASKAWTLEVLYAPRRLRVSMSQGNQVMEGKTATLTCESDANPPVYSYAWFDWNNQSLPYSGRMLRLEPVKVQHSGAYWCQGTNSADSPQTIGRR"},
  "source": "patent US20250064941A1",
  "about": "“SIGLEC LIGANDS, CONJUGATES, AND METHODS OF USE THEREOF” (Osprey Biopharmaceuticals, Inc., priority 2023, published 2025)",
  "key": {"[1]": {"target": "mouse Siglec-2-Fc-Avi (CD22) (Mus musculus, UniProt P35329)", "assay": "SPR binding affinity to mouse CD22", "conditions": "read-out: Affinity mouse CD22, steady-state analysis"}, "[2]": {"target": "human Siglec-2/CD22 protein (Homo sapiens, UniProt P20273)", "assay": "SPR binding affinity to human CD22", "conditions": "read-out: Affinity human CD22, steady-state analysis"}, "cynomolgus Siglec-2/CD22": {"target": "cynomolgus Siglec-2/CD22 (Macaca fascicularis, UniProt A0A2K5WCZ6)", "conditions": "read-out: Affinity cyno CD22; SPR, steady-state analysis"}},
  "note": "The match of structure and compound is tentative.",
  "data": [
    {"smiles": "C#CCOCCOCCO[C@]1(C(=O)O)C[C@H](O)[C@@H](NC(=O)CO)[C@H]([C@H](O)[C@H](O)CNC(=O)c2ccc(Oc3cccc(O)c3)cc2)O1", "values": [
      {"measurement": "Kd", "setting": "[1]", "result": "1 to 10", "unit": "µM"},
      {"measurement": "Kd", "setting": "[2]", "result": "> 10", "unit": "µM"},
      {"measurement": "Kd", "setting": "cynomolgus Siglec-2/CD22", "result": "> 10", "unit": "µM"}
    ]}
  ]
}
